Experimental data published in the supplement of paper PMC10077471.
In all, about 1,900 compounds were measured (“excess over highest single agent (ExcessHSA) synergy score, 6x6 matrix”: median about -83, lowest 2% from about -370 on). This is one part of the list.

Tested on: NCI-H446
Assay: excess over highest single agent (ExcessHSA) synergy score, 6x6 matrix; higher = less synergy (more negative = stronger synergy)
Settings: 72 h; CellTiter-Glo viability

| SMILES | excess over highest single agent |
| --- | --- |
| O=C(NCc1ccncc1)C12CC3CC(C1)CC(c1ccc(Cl)cc1)(C3)C2 + Cc1sc2c(c1C)C(c1ccc(Cl)cc1)=N[C@@H](CC(=O)OC(C)(C)C)c1nnc(C)n1-2 [NCGC00250412-19] | 51.6 |
| NC(=O)c1ncn([C@@H]2O[C@H](CO)[C@@H](O)[C@H]2O)n1 + Cc1sc2c(c1C)C(c1ccc(Cl)cc1)=N[C@@H](CC(=O)OC(C)(C)C)c1nnc(C)n1-2 [NCGC00250412-19] | -4.18 |
| CC(C)NC1CCn2c(=O)[nH]c3cccc(c32)C1O (centres undefined) + Cc1sc2c(c1C)C(c1ccc(Cl)cc1)=N[C@@H](CC(=O)OC(C)(C)C)c1nnc(C)n1-2 [NCGC00250412-19] | -112 |
| CNC(=O)c1ccc(-c2cnc3ncc(Cc4ccc5ncccc5c4)n3n2)cc1F + Cc1sc2c(c1C)C(c1ccc(Cl)cc1)=N[C@@H](CC(=O)OC(C)(C)C)c1nnc(C)n1-2 [NCGC00250412-19] | 48.7 |
| Nc1nc(=O)n([C@H]2C[C@H](O)[C@@H](CO)O2)cc1F + Cc1sc2c(c1C)C(c1ccc(Cl)cc1)=N[C@@H](CC(=O)OC(C)(C)C)c1nnc(C)n1-2 [NCGC00250412-19] | -325 |
| Cc1ccccc1-n1c(Cn2ncc3c(N)ncnc32)nc2cccc(C)c2c1=O + Cc1sc2c(c1C)C(c1ccc(Cl)cc1)=N[C@@H](CC(=O)OC(C)(C)C)c1nnc(C)n1-2 [NCGC00250412-19] | -119 |
| CC[C@H]1OC(=O)[C@H](C)[C@@H](O[C@H]2C[C@@](C)(OC)[C@@H](O)[C@H](C)O2)[C@H](C)[C@@H](O[C@@H]2O[C@H](C)C[C@H](N(C)C)[C@H]2O)[C@](C)(OC)C[C@@H](C)C(=O)[C@H](C)[C@@H](O)[C@]1(C)O + Cc1sc2c(c1C)C(c1ccc(Cl)cc1)=N[C@@H](CC(=O)OC(C)(C)C)c1nnc(C)n1-2 [NCGC00250412-19] | -147 |
| C/C(O)=C(\C#N)C(=O)Nc1cc(Br)ccc1Br + Cc1sc2c(c1C)C(c1ccc(Cl)cc1)=N[C@@H](CC(=O)OC(C)(C)C)c1nnc(C)n1-2 [NCGC00250412-19] | -151 |
| O=C(Nc1nc2ccccc2n1CCN1CCOCC1)c1cccc([N+](=O)[O-])c1 + Cc1sc2c(c1C)C(c1ccc(Cl)cc1)=N[C@@H](CC(=O)OC(C)(C)C)c1nnc(C)n1-2 [NCGC00250412-19] | 35.6 |
| CN(C)CC[C@H](CSc1ccccc1)Nc1ccc(S(=O)(=O)NC(=O)c2ccc(N3CCN(Cc4ccccc4-c4ccc(Cl)cc4)CC3)cc2)cc1[N+](=O)[O-] + Cc1sc2c(c1C)C(c1ccc(Cl)cc1)=N[C@@H](CC(=O)OC(C)(C)C)c1nnc(C)n1-2 [NCGC00250412-19] | -309 |
| COc1cc([C@@H]2c3cc4c(cc3[C@@H](O)[C@H]3COC(=O)[C@H]23)OCO4)cc(OC)c1O + Cc1sc2c(c1C)C(c1ccc(Cl)cc1)=N[C@@H](CC(=O)OC(C)(C)C)c1nnc(C)n1-2 [NCGC00250412-19] | -212 |
| N#CC1(c2cccc(C(=O)Nc3cc(Oc4ccc5nc(NC(=O)C6CC6)sc5n4)ccc3F)c2Cl)CC1 + Cc1sc2c(c1C)C(c1ccc(Cl)cc1)=N[C@@H](CC(=O)OC(C)(C)C)c1nnc(C)n1-2 [NCGC00250412-19] | -196 |
| C[C@H]1COC2=C1C(=O)C(=O)c1c2ccc2c1CCCC2(C)C + Cc1sc2c(c1C)C(c1ccc(Cl)cc1)=N[C@@H](CC(=O)OC(C)(C)C)c1nnc(C)n1-2 [NCGC00250412-19] | -209 |
| NC(=O)Cc1cccc(C(=O)c2ccccc2)c1N + Cc1sc2c(c1C)C(c1ccc(Cl)cc1)=N[C@@H](CC(=O)OC(C)(C)C)c1nnc(C)n1-2 [NCGC00250412-19] | -95.9 |
| Nc1ccccc1NC(=O)c1ccc(CNC(=O)OCc2cccnc2)cc1 + Cc1sc2c(c1C)C(c1ccc(Cl)cc1)=N[C@@H](CC(=O)OC(C)(C)C)c1nnc(C)n1-2 [NCGC00250412-19] | -124 |
| CCCCOc1c(C(=O)c2c(F)cc(C)cc2F)c[nH]c2nncc1-2 + Cc1sc2c(c1C)C(c1ccc(Cl)cc1)=N[C@@H](CC(=O)OC(C)(C)C)c1nnc(C)n1-2 [NCGC00250412-19] | -375 |
| COc1cc(C)c(Sc2cnc(NC(=O)c3ccc(CNC(C)C(C)C)cc3)s2)cc1C(=O)N1CCN(C(C)=O)CC1 (centres undefined) + Cc1sc2c(c1C)C(c1ccc(Cl)cc1)=N[C@@H](CC(=O)OC(C)(C)C)c1nnc(C)n1-2 [NCGC00250412-19] | -144 |
| CCCC(C)(COC(N)=O)COC(=O)NC(C)C (centres undefined) + Cc1sc2c(c1C)C(c1ccc(Cl)cc1)=N[C@@H](CC(=O)OC(C)(C)C)c1nnc(C)n1-2 [NCGC00250412-19] | -13.5 |
| CN(C)C(=O)COC(=O)Cc1ccc(OC(=O)c2ccc(NC(=N)N)cc2)cc1 + Cc1sc2c(c1C)C(c1ccc(Cl)cc1)=N[C@@H](CC(=O)OC(C)(C)C)c1nnc(C)n1-2 [NCGC00250412-19] | -37.3 |
| C[C@@]12C(=O)OC(=O)[C@]1(C)[C@H]1CC[C@@H]2O1 + Cc1sc2c(c1C)C(c1ccc(Cl)cc1)=N[C@@H](CC(=O)OC(C)(C)C)c1nnc(C)n1-2 [NCGC00250412-19] | -274 |
| N=C(N)NC(=O)c1nc(Cl)c(N)nc1N + Cc1sc2c(c1C)C(c1ccc(Cl)cc1)=N[C@@H](CC(=O)OC(C)(C)C)c1nnc(C)n1-2 [NCGC00250412-19] | -160 |
| COc1cc(OC)c(OC)cc1C=O + Cc1sc2c(c1C)C(c1ccc(Cl)cc1)=N[C@@H](CC(=O)OC(C)(C)C)c1nnc(C)n1-2 [NCGC00250412-19] | -51 |
| CNCC[C@H](Oc1cccc2ccccc12)c1cccs1 + Cc1sc2c(c1C)C(c1ccc(Cl)cc1)=N[C@@H](CC(=O)OC(C)(C)C)c1nnc(C)n1-2 [NCGC00250412-19] | -51.3 |
| C[C@@H](Oc1cc(-n2cnc3ccc(CN4CCN(C)CC4)cc32)sc1C(N)=O)c1ccccc1C(F)(F)F + Cc1sc2c(c1C)C(c1ccc(Cl)cc1)=N[C@@H](CC(=O)OC(C)(C)C)c1nnc(C)n1-2 [NCGC00250412-19] | -89.4 |

For reference, some entries already given.

| SMILES | excess over highest single agent |
| --- | --- |
| Nc1ccccc1NC(=O)c1ccc(CNC(=O)OCc2cccnc2)cc1 + Cc1sc2c(c1C)C(c1ccc(Cl)cc1)=N[C@@H](CC(=O)OC(C)(C)C)c1nnc(C)n1-2 [NCGC00250412-19] | -124 |
| CCCCOc1c(C(=O)c2c(F)cc(C)cc2F)c[nH]c2nncc1-2 + Cc1sc2c(c1C)C(c1ccc(Cl)cc1)=N[C@@H](CC(=O)OC(C)(C)C)c1nnc(C)n1-2 [NCGC00250412-19] | -375 |
